# According to patent US5902583A, “Genetic induction of receptors for targeted radiotherapy” (priority 1997, dated 1999):
# The name of at least one read-out is uncertain.
# System: SKOV3.ip1 tumors expressing mGRPr
# Test: Biodistribution and pharmacokinetics of radiolabeled bombesin analogue in mice bearing i.p. SKOV3.ip1 tumors infected with AdCMVGRPr
# Format: in vivo, human SKOV3.ip1 tumors in athymic nude mice
# Procedure: All biodistribution studies were performed in female Balb/c athymic nude mice obtained at 4-5 weeks of age from Frederick Research Laboratory (Frederick, Md.). The peptide mIP-Des-Met-bombesin(7-13)NH2 was synthesized using solid phase peptide synthesis at the UAB Comprehensive Cancer Center Peptide Synthesis and Analysis Shared Facility and has been described elsewhere. Mice were injected i.p. with 2×10^7 SKOV3.ip1 human ovarian carcinoma cells. Five days following cell inoculation, mice were injected i.p. with 1×10^9 pfu of a recombinant adenoviral vector expressing mGRPr. Animals were then injected i.p. 48 hours later with 2 μCi of [^125 I]-mIP bombesin. Mice were sacrificed at 0.5, 2, 5, 15, 30 min and 1, 4, 8, 12 and 24 hours following peptide injection (n=4-10/group) and the following organs were dissected: blood, heart, lungs, liver, stomach, small intestine, spleen, kidney, skin, bone, muscle, uterus, peritoneal lining and thyroid. In addition, tumor nodules were removed from each mouse. All organs, and tumors were weighed and the activity counted in a gamma counter. The % ID/g for each tissue was calculated except for the thyroid in which only the % ID was determined.
# Descriptive statistics were calculated to examine the distribution and variation of time concentration of radiolabeled antibody and peptide, and tissue to blood ratio data (means and standard deviations). Means at each specific time point were calculated from multiple mice data for both tissue concentration and tissue to blood ratios. Mean concentration data (% ID/g) over time was used for pharmacokinetical modeling. The pharmacokinetical parameters were estimated by using the NLIN procedure of Statistical Analysis System programs. Selection of models was based on comparison of Akaike's Information Criterion, the minimization of the model's mean squared error and standard error of the estimated model parameters, and the graphical diagnostics of the model fit.
# Four different pharmacokinetic models, including one and two compartment elimination models along with one and two-compartment models with an absorption phase were required to fit the time concentration curves for the peptide. […] For each of these, the elimination t1/2 was calculated along with Cmax and AUC. A one-compartment model with an absorption phase was determined to be the best model for abdominal lining and muscle data. For each of these, the elimination t1/2 values for each compartment were calculated along with Cmax and AUC. A two-compartment model with an absorption phase was the best model for blood, kidney, and small intestine data. For each of these, elimination t1/2 values for each compartment and the absorption t1/2 value was calculated along with Cmax, Tmax and AUC.
substance,measurement,setting,value
[^125 I]-mIP-Des-Met^14 -bombesin(7-13)NH2 [[^125 I]-mIP-bombesin],t1/2Ab,blood,4.2 min
same,t1/2Ab,kidney,6 min
same,t1/2Ab,lung,0.6 min
same,t1/2Ab,skin,4.2 min
same,t1/2Ab,small intestine,3.6 min
same,t1/2Ab,stomach,0.24 min
